Measurements reported in PubChem BioAssay AID1053208 (Peter MacCallum Cancer Centre, 2014)
Test: 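Synthetic lethal interactions between gene loss and doxorubicin in osteosarcoma cells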 (primary screen). Cells: mouse osteosarcoma cells, early-passage culture from an engineered mouse model of fibroblastic bone tumour. Reagent: siRNA pool against mouse genes, 40 nM. Duration: about 120 h (48 h before drug, then 72 h with drug). Conditions: doxorubicin 100 nM for 72 h, roughly 30-40% inhibitory dose. Measurement: 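Luminescent ATP signal taken as viability with or without 100 nM doxorubicin for 72 h; mean of two wells set against non-targeting siRNA and turned into robust z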. Direction: viability z-score with doxorubicin and doxorubicin viability vs non-targeting: higher = more viable cells under doxorubicin; viability z-score without drug: higher = more viable cells with knock-down alone; z-score of drug to no-drug ratio: higher = less drug sensitisation by knock-down. Rule for the call: 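Called active if knock-down leaves viability unchanged without drug (z within -2 to 2) but lowers it with doxorubicin (z at or under -2)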.
The deposit covers about 17,000 reagents; shown is a random part of them. 788 of all reagents (4.7%) count as active. 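Calls rest on z-score classes alone; an extra cut-off of viability at most 70% of control was not applied to them.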

target gene	combined z-score class	viability z-score with doxorubicin	viability z-score without drug	z-score of drug to no-drug ratio	doxorubicin viability vs non-targeting	Call
Sir2l1	no change with or without drug	-0.34	-0.17	-0.11	0.91	inactive
Ppm1g	no change with or without drug	0.67	-0.51	1.24	1	inactive
Tmem215	no change with or without drug	0.9	-0.67	1.57	1.02	inactive
Fis1	no change with or without drug	-1.8	-0.17	-1.69	0.78	inactive
Gm5115	no change with or without drug	-0.22	0.67	-0.56	0.92	inactive
Psmc5	low cell count with and without drug	-8.54	-7.76	-6.86	0.18	inactive
Etos1	no change with or without drug	-0.22	1.35	-1.01	0.92	inactive
Nicn1	high cell count with doxorubicin only	2.92	1.69	1.8	1.2	inactive
Map4	no change with or without drug	0.34	-0.51	0.79	0.97	inactive
Adprm	no change with or without drug	-0.67	1.69	-1.57	0.88	inactive
Aldh1a2	no change with or without drug	-1.01	0.34	-1.12	0.85	inactive
Gm10413	no change with or without drug	1.8	1.69	0.79	1.1	inactive
Acvr1	no change with or without drug	0	-0.51	0.45	0.94	inactive
Kcnj3	no change with or without drug	-0.67	0.34	-0.79	0.88	inactive
Zfp445	no change with or without drug	0.9	0.34	0.79	1.02	inactive
Tmem150b	no change with or without drug	-1.57	0.34	-1.8	0.8	inactive
Nrtn	no change with or without drug	-1.35	-0.51	-1.01	0.82	inactive
Slc4a9	no change with or without drug	0.34	0.34	0.22	0.97	inactive
Nek4	no change with or without drug	0.22	-0.51	0.67	0.96	inactive
Lrrc14	no change with or without drug	0.45	-0.17	0.67	0.98	inactive
Asns	no change with or without drug	-0.22	-0.84	0.45	0.92	inactive
Zfand6	no change with or without drug	0.34	-1.69	1.8	0.97	inactive
Nsun6	high cell count with and without drug	2.7	2.87	0.79	1.18	inactive
Teddm1a	no change with or without drug	-1.12	0	-1.12	0.84	inactive
Pomc	high cell count with doxorubicin only	2.02	0.84	1.57	1.12	inactive
Rasgrp1	high cell count without drug only	1.69	2.02	0.45	1.09	inactive
Mllt10	no change with or without drug	-1.8	-0.51	-1.46	0.78	inactive
Il7	no change with or without drug	-0.9	0.84	-1.35	0.86	inactive
Ccn1	no change with or without drug	1.91	1.18	1.24	1.11	inactive
Uchl5	no change with or without drug	1.12	1.85	0	1.04	inactive
Szrd1	no change with or without drug	0	0.17	0	0.94	inactive
Ube2g1	no change with or without drug	0.79	1.01	0.22	1.01	inactive
Cfap61	high cell count without drug only	-0.45	2.36	-1.69	0.9	inactive
4933434M16Rik	no change with or without drug	-0.34	0.67	-0.67	0.91	inactive
Oas1c	no change with or without drug	0.79	0.51	0.56	1.01	inactive
Dnaja3	no change with or without drug	-0.79	0.51	-1.01	0.87	inactive
Scgn	no change with or without drug	-1.8	-0.51	-1.46	0.78	inactive
A430057O09	no change with or without drug	0.22	0.17	0.22	0.96	inactive
Gjb4	no change with or without drug	-0.22	0.51	-0.45	0.92	inactive
Slc25a26	no change with or without drug	-1.12	0.17	-1.12	0.84	inactive
Cspg4	no change with or without drug	-0.9	0.34	-1.01	0.86	inactive
Klk1	no change with or without drug	1.35	-0.17	1.69	1.06	inactive
Il9r	no change with or without drug	-0.22	0.51	-0.45	0.92	inactive
Nav3	no change with or without drug	-1.12	0.51	-1.35	0.84	inactive
Haus8	no change with or without drug	0.9	0.84	0.45	1.02	inactive
Ddr2	no change with or without drug	-0.56	-1.52	0.56	0.89	inactive
Or8g17	no change with or without drug	0.45	0.34	0.34	0.98	inactive
Zfp869	no change with or without drug	0.34	1.01	-0.22	0.97	inactive
Pcnx1	no change with or without drug	0.45	-0.34	0.79	0.98	inactive
Ifnz	no change with or without drug	-1.46	-1.18	-0.67	0.81	inactive

Just “viability z-score without drug” (6 entries from above):
Il7 = 0.84
Ccn1 = 1.18
Uchl5 = 1.85
Szrd1 = 0.17
Ube2g1 = 1.01
Cfap61 = 2.36
